# Assay results reported in the supplement of paper PMC10849652.
# Sequences of proteins named here, by UniProt entry; tags and fusion partners are left off. A change or cut given only in a name is not applied to a line headed by its entry.
# UniProt Q9UL63, whole entry, looked up: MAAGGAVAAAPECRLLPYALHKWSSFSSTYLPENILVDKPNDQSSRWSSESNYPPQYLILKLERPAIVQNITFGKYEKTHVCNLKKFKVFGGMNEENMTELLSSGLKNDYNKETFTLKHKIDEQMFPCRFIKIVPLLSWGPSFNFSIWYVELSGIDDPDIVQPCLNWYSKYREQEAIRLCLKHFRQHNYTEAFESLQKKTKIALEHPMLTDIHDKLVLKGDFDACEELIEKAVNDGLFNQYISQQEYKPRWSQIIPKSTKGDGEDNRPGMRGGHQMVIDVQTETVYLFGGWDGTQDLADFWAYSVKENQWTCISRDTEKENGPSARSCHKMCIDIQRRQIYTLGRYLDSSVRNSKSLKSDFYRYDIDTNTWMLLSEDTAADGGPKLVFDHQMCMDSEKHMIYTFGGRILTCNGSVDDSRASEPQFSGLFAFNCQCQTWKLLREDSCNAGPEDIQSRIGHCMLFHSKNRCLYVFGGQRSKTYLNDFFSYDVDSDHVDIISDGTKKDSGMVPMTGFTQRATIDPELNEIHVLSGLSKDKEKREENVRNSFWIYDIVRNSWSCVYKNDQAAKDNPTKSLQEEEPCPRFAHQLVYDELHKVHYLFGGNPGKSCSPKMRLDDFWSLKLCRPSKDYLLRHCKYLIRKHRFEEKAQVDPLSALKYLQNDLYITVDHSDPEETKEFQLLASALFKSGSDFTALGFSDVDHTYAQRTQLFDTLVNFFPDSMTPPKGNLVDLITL
# UniProt Q9NV56, whole entry, looked up: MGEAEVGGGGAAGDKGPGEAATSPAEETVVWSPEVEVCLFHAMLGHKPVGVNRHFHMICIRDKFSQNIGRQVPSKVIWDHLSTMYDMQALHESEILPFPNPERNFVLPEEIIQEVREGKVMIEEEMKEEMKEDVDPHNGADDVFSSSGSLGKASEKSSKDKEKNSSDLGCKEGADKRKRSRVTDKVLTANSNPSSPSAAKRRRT
# UniProt P39210: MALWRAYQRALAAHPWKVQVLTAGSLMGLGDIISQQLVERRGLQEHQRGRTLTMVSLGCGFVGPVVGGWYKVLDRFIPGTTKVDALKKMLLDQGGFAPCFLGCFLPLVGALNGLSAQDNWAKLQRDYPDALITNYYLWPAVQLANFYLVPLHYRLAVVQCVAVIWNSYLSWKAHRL
# UniProt Q9H081: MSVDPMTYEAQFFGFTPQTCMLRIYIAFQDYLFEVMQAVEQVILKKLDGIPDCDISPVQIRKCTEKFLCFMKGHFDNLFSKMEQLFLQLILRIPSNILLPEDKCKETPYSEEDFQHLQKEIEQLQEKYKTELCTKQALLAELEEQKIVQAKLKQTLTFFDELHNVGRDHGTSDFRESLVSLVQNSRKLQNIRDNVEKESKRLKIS
# UniProt Q09328: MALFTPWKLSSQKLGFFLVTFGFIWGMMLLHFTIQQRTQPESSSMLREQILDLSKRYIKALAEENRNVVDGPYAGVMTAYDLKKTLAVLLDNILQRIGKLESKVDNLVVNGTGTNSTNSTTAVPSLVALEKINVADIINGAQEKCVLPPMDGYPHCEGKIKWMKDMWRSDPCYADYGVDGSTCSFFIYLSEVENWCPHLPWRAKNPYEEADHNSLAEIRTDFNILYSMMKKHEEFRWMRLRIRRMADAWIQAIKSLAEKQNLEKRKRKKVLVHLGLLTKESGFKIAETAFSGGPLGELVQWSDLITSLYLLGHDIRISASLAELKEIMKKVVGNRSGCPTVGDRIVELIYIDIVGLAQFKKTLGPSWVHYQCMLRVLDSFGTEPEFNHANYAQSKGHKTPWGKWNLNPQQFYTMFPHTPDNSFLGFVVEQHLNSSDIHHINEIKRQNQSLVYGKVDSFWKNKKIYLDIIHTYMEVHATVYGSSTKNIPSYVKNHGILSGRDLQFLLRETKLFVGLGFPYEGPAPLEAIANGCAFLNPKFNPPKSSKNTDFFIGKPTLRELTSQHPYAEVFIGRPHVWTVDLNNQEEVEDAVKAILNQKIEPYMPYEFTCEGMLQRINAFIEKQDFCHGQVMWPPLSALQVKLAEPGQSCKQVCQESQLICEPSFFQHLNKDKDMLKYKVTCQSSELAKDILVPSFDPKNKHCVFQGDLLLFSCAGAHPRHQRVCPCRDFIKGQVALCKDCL
# UniProt Q9NZW5: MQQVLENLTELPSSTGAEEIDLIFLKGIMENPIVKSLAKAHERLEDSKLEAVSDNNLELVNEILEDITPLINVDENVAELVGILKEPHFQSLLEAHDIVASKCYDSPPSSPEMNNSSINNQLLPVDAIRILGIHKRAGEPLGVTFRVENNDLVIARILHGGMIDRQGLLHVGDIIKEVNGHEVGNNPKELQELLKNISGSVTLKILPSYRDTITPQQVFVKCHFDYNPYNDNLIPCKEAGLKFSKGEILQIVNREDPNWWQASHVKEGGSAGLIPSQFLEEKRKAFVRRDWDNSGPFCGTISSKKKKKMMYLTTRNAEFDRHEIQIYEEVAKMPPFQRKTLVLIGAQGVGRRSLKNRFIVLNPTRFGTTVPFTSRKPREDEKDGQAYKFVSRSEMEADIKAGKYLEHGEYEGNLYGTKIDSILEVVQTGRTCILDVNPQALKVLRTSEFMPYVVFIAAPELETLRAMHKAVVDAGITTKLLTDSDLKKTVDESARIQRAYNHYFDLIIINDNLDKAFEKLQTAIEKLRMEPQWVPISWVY
# UniProt Q96PC5: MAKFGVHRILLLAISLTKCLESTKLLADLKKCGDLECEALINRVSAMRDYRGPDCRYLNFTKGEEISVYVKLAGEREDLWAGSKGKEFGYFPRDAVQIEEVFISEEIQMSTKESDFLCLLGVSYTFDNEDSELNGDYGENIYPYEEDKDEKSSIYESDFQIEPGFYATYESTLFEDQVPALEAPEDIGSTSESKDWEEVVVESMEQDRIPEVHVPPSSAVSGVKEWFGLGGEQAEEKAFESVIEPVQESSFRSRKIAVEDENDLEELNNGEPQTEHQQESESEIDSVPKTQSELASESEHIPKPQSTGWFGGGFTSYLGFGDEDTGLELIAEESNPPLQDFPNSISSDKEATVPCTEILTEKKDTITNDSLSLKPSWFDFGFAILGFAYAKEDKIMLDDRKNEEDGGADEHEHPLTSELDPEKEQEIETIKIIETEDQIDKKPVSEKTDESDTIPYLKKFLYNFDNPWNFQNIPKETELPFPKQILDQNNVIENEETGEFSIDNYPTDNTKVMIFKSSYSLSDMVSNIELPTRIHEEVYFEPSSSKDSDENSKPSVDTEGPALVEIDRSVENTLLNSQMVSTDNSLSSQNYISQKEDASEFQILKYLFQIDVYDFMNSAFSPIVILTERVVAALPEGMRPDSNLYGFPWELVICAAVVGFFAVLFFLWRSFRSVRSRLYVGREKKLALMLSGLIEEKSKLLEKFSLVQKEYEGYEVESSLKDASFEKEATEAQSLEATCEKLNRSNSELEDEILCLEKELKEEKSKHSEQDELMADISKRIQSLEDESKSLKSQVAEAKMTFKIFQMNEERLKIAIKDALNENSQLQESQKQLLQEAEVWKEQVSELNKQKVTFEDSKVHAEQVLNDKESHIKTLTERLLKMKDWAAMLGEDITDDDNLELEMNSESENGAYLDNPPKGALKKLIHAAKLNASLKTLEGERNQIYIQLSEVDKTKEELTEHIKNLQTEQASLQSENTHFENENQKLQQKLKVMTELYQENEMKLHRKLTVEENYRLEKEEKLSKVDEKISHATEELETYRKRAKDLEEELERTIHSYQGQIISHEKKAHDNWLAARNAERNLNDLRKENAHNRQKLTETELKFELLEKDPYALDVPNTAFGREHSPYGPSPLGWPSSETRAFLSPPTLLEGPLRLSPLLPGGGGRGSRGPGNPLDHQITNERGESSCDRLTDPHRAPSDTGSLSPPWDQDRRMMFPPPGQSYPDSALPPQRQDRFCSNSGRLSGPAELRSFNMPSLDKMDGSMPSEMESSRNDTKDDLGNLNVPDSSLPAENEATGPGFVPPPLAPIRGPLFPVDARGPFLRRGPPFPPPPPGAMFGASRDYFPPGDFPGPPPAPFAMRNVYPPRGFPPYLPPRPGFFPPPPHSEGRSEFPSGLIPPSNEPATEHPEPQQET
# This is one part of the list.
# Tests used:
# Assay in all cases: log2 fold change, soluble protein after heating vs DMSO (PISA); higher = thermal stabilisation; K562 lysate, 10 uM; active = over 0.2 and 3.5 SD of the protein, either way, in both replicates (recomputed)
# alvocidib = compound: CN1CC[C@H](c2c(O)cc(O)c3c(=O)cc(-c4ccccc4Cl)oc23)[C@H](O)C1 [alvocidib]
# In short: (§1)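 Pellets of K562 cells were dounce-homogenised in PBS pH 7.4 with 1 mM MgCl2, and the crude extract was held at 1 mg/mL protein for a 30 min treatment with 10 μM compound. Aliquots were heated for 3 min over 48°C-58°C and pooled before NP-40 was added to 0.5% at 4°C. The supernatant from 21,000xg for 90 min was quantified by TMTpro 16plex LC-MS/MS with channel sums equalised. Values are reported from duplicates as log-two fold change in thermal stability relative to solvent controls.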
# Tubastatin A = compound: CN1CCc2c(c3ccccc3n2Cc2ccc(C(=O)NO)cc2)C1 [Tubastatin A]
# In short: as §1
# [1] = compound: CNC(=O)C1=CC=CC=C1NC2=NC(=NC=C2Cl)NC3=C(C=C(C=C3)N4CCOCC4)OC
# In short: as §1
# defactinib = compound: CNC(=O)c1ccc(Nc2ncc(C(F)(F)F)c(NCc3nccnc3N(C)S(C)(=O)=O)n2)cc1 [defactinib]
# In short: as §1
# [2] = compound: CNc1nc(-c2ccc3c(N)n[nH]c3c2)cc(N2C[C@@H](C(=O)NC3CCCCC3)CC[C@H]2C)n1
# In short: as §1
# encorafenib = compound: COC(=O)N[C@@H](C)CNc1nccc(-c2cn(C(C)C)nc2-c2cc(Cl)cc(NS(C)(=O)=O)c2F)n1 [encorafenib]
# In short: as §1
# [3] = compound: COC(=O)[C@H](CCSC)NC(=O)C1=C(C=C(C=C1)NC[C@H](CS)N)C2=CC=CC=C2
# In short: as §1
# alisertib = compound: COc1cc(Nc2ncc3c(n2)-c2ccc(Cl)cc2C(c2c(F)cccc2OC)=NC3)ccc1C(=O)O [alisertib]
# In short: as §1
# [4] = compound: COc1cc2nc(-c3cc(F)ccc3O)nc(N[C@@H]3CNC[C@H]3C(C)(C)O)c2cc1OC
# In short: as §1
# gefitinib = compound: COc1cc2ncnc(Nc3ccc(F)c(Cl)c3)c2cc1OCCCN1CCOCC1 [gefitinib]
# In short: as §1
# lapatinib = compound: CS(=O)(=O)CCNCc1ccc(-c2ccc3ncnc(Nc4ccc(OCc5cccc(F)c5)c(Cl)c4)c3c2)o1 [lapatinib]
# In short: as §1
# pictilisib = compound: CS(=O)(=O)N1CCN(Cc2cc3nc(-c4cccc5[nH]ncc45)nc(N4CCOCC4)c3s2)CC1 [pictilisib]
# In short: as §1
# crizotinib = compound: C[C@@H](Oc1cc(-c2cnn(C3CCNCC3)c2)cnc1N)c1c(Cl)ccc(F)c1Cl [crizotinib]
# In short: as §1
# [5] = compound: C[C@H](C1=CC=C(C=C1)C(=O)NC2=C3C=CNC3=NC=C2)N
# In short: as §1
# duvelisib = compound: C[C@H](Nc1ncnc2nc[nH]c12)c1cc2cccc(Cl)c2c(=O)n1-c1ccccc1 [duvelisib]
# In short: as §1
# gandotinib = compound: Cc1cc(Nc2cc(CN3CCOCC3)c3nc(C)c(Cc4ccc(Cl)cc4F)n3n2)n[nH]1 [gandotinib]
# In short: as §1
# tozasertib = compound: Cc1cc(Nc2cc(N3CCN(C)CC3)nc(Sc3ccc(NC(=O)C4CC4)cc3)n2)n[nH]1 [tozasertib]
# In short: as §1
# doramapimod = compound: Cc1ccc(-n2nc(C(C)(C)C)cc2NC(=O)Nc2ccc(OCCN3CCOCC3)c3ccccc23)cc1 [doramapimod]
# In short: as §1
# bafetinib = compound: Cc1ccc(NC(=O)c2ccc(CN3CC[C@H](N(C)C)C3)c(C(F)(F)F)c2)cc1Nc1nccc(-c2cncnc2)n1 [bafetinib]
# In short: as §1
# [6] = compound: Cc1cccc(CC(=O)N2CCc3c2ccc(-c2cn(C)c4ncnc(N)c24)c3F)n1
# In short: as §1
Target,log2 fold change (alvocidib),log2 fold change (Tubastatin A),log2 fold change [1],log2 fold change (defactinib),log2 fold change [2],log2 fold change (encorafenib),log2 fold change [3],log2 fold change (alisertib),log2 fold change [4],log2 fold change (gefitinib),log2 fold change (lapatinib),log2 fold change (pictilisib),log2 fold change (crizotinib),log2 fold change [5],log2 fold change (duvelisib),log2 fold change (gandotinib),log2 fold change (tozasertib),log2 fold change (doramapimod),log2 fold change (bafetinib),log2 fold change [6]
MKLN1 (UniProt Q9UL63),inactive: -0.008,inactive: -0.006,inactive: 0,inactive: 0.008,inactive: 0.043,inactive: 0.024,inactive: -0.002,inactive: 0.019,inactive: -0.016,inactive: 0,inactive: 0.01,inactive: 0.003,inactive: -0.031,inactive: 0.01,inactive: -0.012,inactive: 0.02,inactive: -0.016,inactive: -0.017,inactive: 0.031,inactive: -0.022
MRGBP (UniProt Q9NV56),inactive: 0.047,inactive: 0.05,inactive: -0.013,inactive: 0.043,inactive: 0.013,inactive: 0.157,inactive: -0.172,inactive: 0.152,inactive: -0.042,inactive: -0.21,inactive: -0.042,inactive: 0.026,inactive: 0.062,inactive: -0.05,inactive: 0.022,inactive: 0.024,inactive: -0.143,inactive: -0.034,inactive: -0.036,inactive: 0.048
MPV17 (UniProt P39210),inactive: 0.011,inactive: -0.049,inactive: 0.203,inactive: 0.135,inactive: 0.042,inactive: -0.041,inactive: 0.007,inactive: -0.04,inactive: 0.077,inactive: -0.014,inactive: -0.068,inactive: 0.133,inactive: 0,inactive: -0.028,inactive: -0.03,inactive: 0.326,inactive: 0.059,inactive: 0.092,inactive: 0.096,inactive: 0.045
MIS12 (UniProt Q9H081),inactive: -0.014,inactive: -0.025,inactive: 0.079,inactive: 0.008,inactive: 0.05,inactive: -0.007,inactive: 0.122,inactive: -0.021,inactive: 0.005,inactive: -0.078,inactive: -0.037,inactive: -0.07,inactive: -0.044,inactive: 0.001,inactive: -0.003,inactive: 0.018,inactive: -0.07,inactive: 0.017,inactive: -0.037,inactive: 0.028
MGAT5 (UniProt Q09328),inactive: 0.056,inactive: -0.009,inactive: -0.011,active: -0.337,inactive: -0.026,inactive: 0.006,inactive: -0.095,inactive: 0.025,inactive: 0.054,inactive: -0.064,inactive: 0.022,inactive: 0.066,inactive: -0.051,inactive: 0.098,inactive: 0.018,inactive: -0.106,inactive: -0.037,inactive: 0.023,inactive: 0.079,inactive: -0.112
MPP6 (UniProt Q9NZW5),inactive: 0.033,inactive: -0.026,inactive: 0.027,inactive: -0.011,inactive: 0.028,inactive: -0.01,inactive: -0.027,inactive: 0.016,inactive: -0.036,inactive: -0.006,inactive: 0.007,inactive: -0.041,inactive: -0.08,inactive: -0.002,inactive: 0.011,inactive: -0.02,inactive: 0.043,inactive: -0.005,inactive: -0.032,inactive: 0.008
MIA2 (UniProt Q96PC5),inactive: 0.073,inactive: -0.046,inactive: -0.104,inactive: -0.002,inactive: 0.008,inactive: 0.035,inactive: -0.087,inactive: -0.034,inactive: -0.071,inactive: -0.064,inactive: 0.101,inactive: -0.066,inactive: -0.044,inactive: 0.183,inactive: -0.05,inactive: -0.161,inactive: 0.003,inactive: 0.018,inactive: -0.019,inactive: -0.088
MRPL11 (UniProt Q9Y3B7),inactive: 0.007,inactive: -0.104,inactive: 0.009,inactive: 0.023,inactive: 0.031,inactive: -0.011,inactive: 0.068,inactive: -0.019,inactive: 0.018,inactive: -0.053,inactive: -0.018,inactive: -0.012,inactive: -0.029,inactive: 0.005,inactive: 0.036,inactive: 0.013,inactive: 0.004,inactive: 0.014,inactive: -0.083,inactive: -0.018
